Among the data in PMC6045555 are binding values, retold here.

The assay addresses HSP16.6 carrying a Strep-tag II affinity tag on the C-terminus (Synechocystis sp. PCC 6803). The assay is described as follows: affinity purification with mass spectrometry; HSP16.6-Strep held on Strep-Tactin resin (4 °C, 2 h) from the soluble fraction of Synechocystis cells treated at 42 °C 2 h, 1 h recovery at 30 °C, then 30 min at 46 °C; lysis buffer 25 mM HEPES-KOH, 0.2 M NaCl, 0.5% Triton X-100, 1 mM EDTA, pH 7.5; six washes; spots or bands unique to the heat-stressed sample cut from 1D or 2D gels and identified by LC-MS/MS.

Results are given in words; binding and its absence hold for the method and conditions named. In cells and extracts the contact can be indirect. These calls come from enrichment with a bait or labelling near it, and not all partners need be listed.

B1: ATP-dependent protease ClpP (enzyme, UniProt P54416 1-198)
chain: MIPTVIETSGRGDRAFDIYSRLLRERIVFLGQEVRDENANLVVAQLLFLEAEDPEKDIYLYINSPGGSVSAGLGIFDTMNQIRPDVCTICIGLAASMGAFLLSAGAKGKRMSLPNSRIMIHQPLGGAQGQATDIEIQAKEILYLKALLNQHLANHTGKSLEEITADTERDFFMSAEESKEYGLIDQVINRRPSASDPI
With B1, the binding entry is “binds”.

B2: Fructose-bisphosphate aldolase, class II (enzyme, UniProt Q55664 1-359)
chain: MALVPMRLLLDHAAENGYGIPAFNVNNMEQIISIMQAADETDSPVILQASRGARSYAGENFLRHLVLGAVETYPHIPIAMHQDHGNSPATCYSAIRNGFTSVMMDGSLEADAKTPASFEYNVNVTAEVVKVAHSVGASVEGELGCLGSLETGQGEAEDGHGFEGKLDHSQLLTDPEEAVEFVNKTQVDALAVAIGTSHGAYKFTRKPTGEVLAISRIEEIHRLLPNTHLVMHGSSSVPQEWIDMINEFGGAIPETYGVPVEEIQKGIKSGVRKVNIDTDNRLAITAAFREAAAKDPKNFDPRHFLKPSIKYMKQVCADRYQQFWTAGNASKIKQLTLDDYAAKYAKGELTATSRTSVAV
As for B2, the binding entry is given as “binds”.

B3: RNA polymerase beta subunit (protein, UniProt P77965 1-1102)
chain: MTNLATTMLPDLIEIQHASFHWFLEEGLIEELNSFSPISDYTGKLELHFLGKDYKLKQPKYDVDESKRRDASYSVQMYVPTRLINKETGEIKEQEVFIGDLPLMTERGTFIINGAERVIVNQIVRSPGVYYKKELDKNGRRTYSASLIPNRGAWLKFETDKNGLVYVRIDKTRKLSAQVLLKAIGLSDNEILDSLSHPEFYQKTLDKEGNPTEEEALVELYKKLRPGEPPTVSGGQQLLESRFFDPKRYDLGRVGRYKLNKKLRLNEADTTRVLTPQDILAAINYLINLEFDVGTTDDIDHLGNRRVRSVGELLQNQIRVGLNRLERIIRERMTVSESDALTPASLVNPKPLVAAIKEFFGSSQLSQFMDQTNPLAELTHKRRISALGPGGLTRERAGFAVRDIHPSHHGRICPVETPEGPNAGLIGSLATCARVNDYGFIETPYFRVESGRVRKDLDPVYLTADEEDDMRVAPGDIPTDEEGNIIGESVPIRYRQEFSTTSPEQVDYVAVSPVQIISVATSMIPFLEHDDANRALMGSNMQRQAVPLLRPERPLVGTGLEAQAARDSGMVIVSRTHGIVTYVDATEIRVQPHSPDNPAEKGEEIVYPIQKYQRSNQDTCLNQRPLVYAGEDVVPGQVLADGSATEGGELALGQNILVAYMPWEGYNYEDAILISERLVYDDVYTSIHIEKFEIEARQTKLGPEEITREIPNVGEDALRNLDEHGIIRIGAWVESGDILVGKVTPKGEADQPPEEKLLRAIFGEKARDVRDNSLRVPNGEKGRVVDVRVFTREKGDELPPGANMVVRIYVAQKRKIQVGDKMAGRHGNKGIISRILPIEDMPYLPDGRPIDIALNPLGVPSRMNVGQVFECLLGWAGENLGVRFKITPFDEMYGEEASRDTVHGLLEEASQRPNKDWVFNENHPGKIQVFDGRTGEPFDRPITVGQAYMLKLVHLVDDKIHARSTGPYSLVTQQPLGGKAQQGGQRFGEMEVWALEAYGAAYILQELLTVKSDDMQGRNEALNAIVKGKSIPRPGTPESFKVLMRELQSLGLDIAAHKVQLSEDGESADAEVDLMIDSQRRAPNRPTYESLHTEEDLEEEEV
B3: the binding entry was “binds”.

B4: DnaK 3 (protein, UniProt P73098 1-771)
chain: MGKVVGIDLGTTNSVVAVMEGGKPIVIANAEGMRTTPSVVGFNKEGELVVGQMGRRQAVLNPQNTFYGVKRFMGRRYTDLTPESKRVAYTIRRDDRDNIKVRCPRLKKDFAPEEISAMILRKLAEEASRYLGEKVTGAVITVPAYFNDSQRQATRDAGKIAGLEVLRIINEPTAASLAYGLDQGRIQKILVFDLGGGTFDVSVLEVGDGIFEVKATSGDTQLGGNDFDRRIVDWLAEKFLEAEKVDLRQDRQALQRLTEAAEKAKIELSGVGTTEINLPFITATEDGPKHLETQLSRSEFEDLCGDLVTRLQRPVKRVLKDAGLSPVQIDEVVLVGGGTRMPMVKGLVRSFIDREPNENVNPDEVVAIGAAIQAGILDGEVKDILLLDVTPLSFGLETIGGVMKKLLPRNTTIPVRKSDIFSTGENNQTVVEVHVLQGEREMASDNISLGRFKLSGIPPAPRGVPQVQVSFDIDANGILQVTARDKTTGREQSITVQGASILSEGEVNRMIQEAETFAAQDRERRERIEKRNSAKALTDQAQRRLKEVTLDFGSAFTVSYRRQVDALCSEILDSLEKDDERRLDRAQADLQDVLYELNREVRLQYDDKEEGFFEAIKKTFTGDFDDDDDYYNRRPAPRDDYRGGNDYGRYDDYNYNAPSRREAPMPRAGAGRGPSLSKDYRSTAYADWDQSRVTRQRPYQGESLGGTYDDRRSSPQDDYSRGDRQKDYDYRENAPSRSGRGGNGRYGERPAQPGRNAPLQNGWDDDDDDWF
B4: the binding entry is on record as “binds”.

B5: GTP-binding protein TypA/BipA homolog (protein, UniProt P72749 1-597)
chain: MSLPIRNVAIIAHVDHGKTTLVDALLKQSGIFREGEDVPVCVMDSNDLERERGITILSKNTAVRYQDTLINIVDTPGHADFGGEVERVLGMVDGCVLIVDANEGPMPQTRFVLKKALEKGLRPLVVVNKIDRPRADPNTAVDKVFDLFVELGADDDQCDFTTLFASGLGGFAKESLDDDSEDMKPLFEAILHHVPPPAGDPNKPLQLQVTTLDYSDYLGRIIIGRIHNGTVKAGQQAALVKEDGSIAKGKVSKLLGFEGLNRIELPEASAGYIVAIAGFADANIGETLTCPDEPQALPLIKVDEPTLQMTFSVNDSPFAGQEGKFVTSRQIRDRLNRELETNVALRVEDGESAEQFLVSGRGELHLGILIETMRREGYEFQVAQPQVIYREVNGQPCEPVEYLVLDVPEAAVGACIERLGQRRGEMQDMQTSVNGRTQLEFVIPARGLLGFRGDFIRITRGEGIMNHSFLEYRPMSGDLETRYNGVMVAFEEGVATFYAMKNAEDRGVFFITPGTKVYKGMIIGEHNRPQDIELNVCKTKQLTNHRSATGDELVQLQAPEDMNLERALEYIGPDELVEITPESIRLRKVARKKLVKR
On to B5, for which the binding result is given as “binds”.

B6: 60 kDa chaperonin 1 (protein, UniProt Q05972 1-541)
chain: MAKSIIYNDEARRALERGMDILAEAVAVTLGPKGRNVVLEKKFGSPQIINDGITIAKEIELEDHVENTGVSLIRQAASKTNDVAGDGTTTATVLAHAIVKEGLRNVAAGANPISLKRGIDKATDFLVARIKEHAQPVGDSKAIAQVGAISAGNDEEVGQMIANAMDKVGQEGVISLEEGKSMTTELEITEGMRFDKGYISPYFVTDAERMEAVLEDPRILITDKKINLVQDLVPILEQVARQGKPLLIIAEDIEKEALATLVVNRLRGVLNVAAVKAPGFGDRRKQMLEDIATLTGGQVISEDAGLKLESATVDSLGSARRINITKDNTTIVAEGNEAAVKSRCEQIRRQIEETDSSYDKEKLQERLAKLAGGVAVIKVGAATETEMKDRKLRLEDAINATKAAVEEGIVPGGGTTLAHLAPQLEDWATGNLKDEELTGALIVARALPAPLKRIAENAGQNGAVISERVKEKEFNVGYNAASLEYVDMLAAGIVDPAKVTRSALQNAASIAGMVLTTECIVVDKPEKEKAPAGAPGGDFDY
Regarding B6, the binding entry is “binds”.

B7: Peptidyl-prolyl cis-trans isomerase (enzyme, UniProt P73789 1-171)
chain: MMSKVFFDITIGSDTAGRIVMELFDEVTPKTAENFRALCTGEKGVGKAGKPLHFKGSHFHRVITDFMAQGGDFTRGNGTGGESIYGEKFADENFQLKHDRPGLLSMANAGPNTNGSQFFLTFVPCPWLDGKHVVFGEVVEGLEILEQLEANGSQSGQTKQAIVISDCGEIK
Regarding B7, the binding entry was “binds”.

B8: RNA polymerase alpha subunit (protein, UniProt P73297 1-314)
chain: MAQFQIECVESSTRKNQQQYSKFSLEPLDRGQGTTVGNALRRVLLSNLPGAAVTAIRIAGVNHEFATILGVREDVLEIMLNMKELVLKSYTDQPQIGRLTAIGPGTVTAAQFEVPSEVEVIDPNQYIATLAEGAKLEMEFRVERGVGYRVIERGKDENSSLDFLQIDSVFMPVTKVNYTVEDIRADGMSPKDRLILDIWTNGSIQPREALSEASDIIANLFIPLKDLNELEAAHSDYQDEVNPESQIPIEELQLSVRAYNCLKRAQINSVADLLEYSQEDLLEIKNFGLKSAEEVIEALQKRLGITLPHEKAKA
Consider B8, for which the binding entry is listed as “binds”.

B9: Trigger factor (TF) (protein, UniProt Q55511 1-471)
chain: MKVTQEKLPDSQVGLEIEIPATASKKVYENVVKKLTRTVNIPGFRRGKVPRAIVIQRLGQSYIKATAIEELIDDSIKAAVKQEELPIIGNFSLRSDMENLIQIFDPEAPLTIKVAADVFPEAEYEPESYKKITAQAEEIEYSADAVDQWLKGEQEKRATLVPVEDRPAALGDLAIVDYAAFQVAEDGQAGEAIAEVKGSDFEVTLEDGRFVAGIVDGIVGMAVDETKLIPVTFPEDYPLEAVAGEDVLFEIKLKEIKFRELPELDDDFAEDVSEFETMAELKADLEKQFQEQAKQRTDDNIKAAIKKKLGELFTGDLPETMIKQECDRLVAQTAMELERMGLDVSQLFRQGDDMLQTLKDNSRPEAIANLKTDLMIGAIAKEEKIQPTEAEVKERCDELRQEFKGEKIDESRLVNFVESSLTESKVLDLLKEWADVELLPEGSLSQTEEDTPDDDAEEEAIVDVEATSDEE
Turning to B9, the binding entry is “binds”.
